These are yes or no findings as the source states them, for the method shown. Binding seen in cells or lysates may run through a third protein. Some entries that bind do so weakly or less than the wild type. For part of these data: Sequences can lack the tags named with a protein.

Protein sequences, listed by entry. Tags and fused reporters are not part of them.
UniProt Q92973: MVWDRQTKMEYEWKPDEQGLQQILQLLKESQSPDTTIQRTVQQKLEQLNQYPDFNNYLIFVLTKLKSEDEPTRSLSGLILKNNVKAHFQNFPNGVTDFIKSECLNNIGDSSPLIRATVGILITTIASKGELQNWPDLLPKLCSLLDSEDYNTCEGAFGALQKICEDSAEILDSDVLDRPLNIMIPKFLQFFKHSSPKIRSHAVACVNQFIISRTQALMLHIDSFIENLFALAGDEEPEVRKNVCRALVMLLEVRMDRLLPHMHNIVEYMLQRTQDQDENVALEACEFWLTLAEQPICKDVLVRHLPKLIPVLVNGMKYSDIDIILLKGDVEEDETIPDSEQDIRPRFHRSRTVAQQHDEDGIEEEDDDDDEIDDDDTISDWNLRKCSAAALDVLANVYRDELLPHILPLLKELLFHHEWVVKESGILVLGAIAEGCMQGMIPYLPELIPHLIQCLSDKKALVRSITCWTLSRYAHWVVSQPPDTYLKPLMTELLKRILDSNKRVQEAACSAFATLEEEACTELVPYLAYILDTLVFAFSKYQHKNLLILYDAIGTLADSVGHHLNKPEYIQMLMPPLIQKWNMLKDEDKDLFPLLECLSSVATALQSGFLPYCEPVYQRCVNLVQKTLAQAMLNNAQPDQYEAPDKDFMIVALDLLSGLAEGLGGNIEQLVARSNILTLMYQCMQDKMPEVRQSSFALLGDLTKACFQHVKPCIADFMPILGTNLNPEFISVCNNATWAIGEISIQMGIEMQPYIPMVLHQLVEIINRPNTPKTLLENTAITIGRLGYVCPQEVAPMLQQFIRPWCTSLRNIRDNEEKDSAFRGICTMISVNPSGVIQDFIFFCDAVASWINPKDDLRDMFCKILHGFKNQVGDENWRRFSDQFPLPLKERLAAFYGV

This passage reports binding results from paper doi:10.1101/2023.06.22.545931.

Assay [1] deals with T1, LgBiT/FLAG-tagged MX2 (human) (UniProt P20592).
T1 sequence: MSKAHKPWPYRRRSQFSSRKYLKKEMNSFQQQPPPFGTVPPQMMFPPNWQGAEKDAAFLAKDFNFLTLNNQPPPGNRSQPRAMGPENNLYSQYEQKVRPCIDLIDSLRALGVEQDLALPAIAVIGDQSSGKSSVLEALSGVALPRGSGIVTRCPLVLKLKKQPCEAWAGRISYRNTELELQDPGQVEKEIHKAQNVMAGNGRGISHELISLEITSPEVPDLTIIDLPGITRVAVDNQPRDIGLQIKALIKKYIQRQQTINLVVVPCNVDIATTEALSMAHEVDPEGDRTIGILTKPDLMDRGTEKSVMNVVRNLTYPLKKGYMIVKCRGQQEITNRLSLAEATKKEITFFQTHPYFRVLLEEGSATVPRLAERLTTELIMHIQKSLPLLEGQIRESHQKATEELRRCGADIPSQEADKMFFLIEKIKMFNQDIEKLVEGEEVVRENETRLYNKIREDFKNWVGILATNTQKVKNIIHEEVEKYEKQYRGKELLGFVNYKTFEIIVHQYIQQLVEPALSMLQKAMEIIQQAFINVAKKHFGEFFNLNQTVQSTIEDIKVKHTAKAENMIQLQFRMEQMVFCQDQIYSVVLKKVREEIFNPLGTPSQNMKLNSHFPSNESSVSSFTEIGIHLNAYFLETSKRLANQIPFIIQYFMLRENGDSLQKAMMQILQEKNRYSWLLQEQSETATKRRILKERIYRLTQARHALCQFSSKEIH
Nature of the assay: split reporter.

The target in assay [2] is LgBiT/FLAG-tagged MX2(26-715) (human) (UniProt P20592). Nature of the assay: split reporter.
Assay [3] has as its target LgBiT/FLAG-tagged MX2(51-715) (human) (UniProt P20592). As to the kind of experiment: split reporter.
The target in assay [4] is LgBiT/FLAG-tagged MX2(Δ26-90) (human) (UniProt P20592). Nature of the assay: split reporter.
The target in another assay is T2, FLAG-tagged MX2 (human) (UniProt P20592).
T2 sequence: T1 sequence
As to the kind of experiment: co-IP.

Assay [5] has as its target LgBiT/FLAG-tagged MX2(K131A) (human) (UniProt P20592). As to the kind of experiment: split reporter.
The target of assay [6] is LgBiT/FLAG-tagged MX2(M574D) (human) (UniProt P20592). As to the kind of experiment: split reporter.

Take “SmBiT/V5-tagged TNPO1 (from UniProt Q92973 1-898)”: the binding result in assay [1] is listed as “binds”; in assay [2], “no binding”; in assay [3] it was “no binding”; in assay [4], “no binding”.

B1: SmBiT/V5-tagged NUP35 (protein, UniProt Q8NFH5 1-326)
chain: MAAFAVEPQGPALGSEPMMLGSPTSPKPGVNAQFLPGFLMGDLPAPVTPQPRSISGPSVGVMEMRSPLLAGGSPPQPVVPAHKDKSGAPPVRSIYDDISSPGLGSTPLTSRRQPNISVMQSPLVGVTSTPGTGQSMFSPASIGQPRKTTLSPAQLDPFYTQGDSLTSEDHLDDSWVTVFGFPQASASYILLQFAQYGNILKHVMSNTGNWMHIRYQSKLQARKALSKDGRIFGESIMIGVKPCIDKSVMESSDRCALSSPSLAFTPPIKTLGTPTQPGSTPRISTMRPLATAYKASTSDYQVISDRQTPKKDESLVSKAMEYMFGW
For the molecule B1, in assay [1], the binding result is recorded as “binds”.

B2: MX2-MUTT2A-TurboID (protein, UniProt P20592 1-715)
chain: T1 sequence
On to B2, for which, in the assay with FLAG-tagged MX2 (human), the binding result is on record as “binds”.

B3: SmBiT/V5-tagged SAMD4A (protein, UniProt Q9UPU9 1-718)
chain: MMFRDQVGVLAGWFKGWNECEQTVALLSLLKRVSQTQARFLQLCLEHSLADCAELHVLEREANSPGIINQWQQESKDKVISLLLTHLPLLKPGNLDAKVEYMKLLPKILAHSIEHNQHIEESRQLLSYALIHPATSLEDRSALAMWLNHLEDRTSTSFGGQNRGRSDSVDYGQTHYYHQRQNSDDKLNGWQNSRDSGICINASNWQDKSMGCENGHVPLYSSSSVPTTINTIGTSTSTILSGQAHHSPLKRSVSLTPPMNVPNQPLGHGWMSHEDLRARGPQCLPSDHAPLSPQSSVASSGSGGSEHLEDQTTARNTFQEEGSGMKDVPAWLKSLRLHKYAALFSQMTYEEMMALTECQLEAQNVTKGARHKIVISIQKLKERQNLLKSLERDIIEGGSLRIPLQELHQMILTPIKAYSSPSTTPEARRREPQAPRQPSLMGPESQSPDCKDGAAATGATATPSAGASGGLQPHQLSSCDGELAVAPLPEGDLPGQFTRVMGKVCTQLLVSRPDEENISSYLQLIDKCLIHEAFTETQKKRLLSWKQQVQKLFRSFPRKTLLDISGYRQQRNRGFGQSNSLPTAGSVGGGMGRRNPRQYQIPSRNVPSARLGLLGTSGFVSSNQRNTTATPTIMKQGRQNLWFANPGGSNSMPSRTHSSVQRTRSLPVHTSPQNMLMFQQPEFQLPVTEPDINNRLESLCLSMTEHALGDGVDRTSTI
In the case of B3, the binding result in assay [1], in assay [5] and in assay [6] was “binds” each time.
